Measured data: PubChem BioAssay AID652243 (Drosophila RNAi Screening Center, 2013)

- Screen: 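Fly regulators of androgen-dependent reporter output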 (primary screen)
- Cell system: Drosophila S2R+ cells
- Knock-down reagent: long dsRNA against Drosophila genes
- Duration: 72 h (48 h, then 24 h hormone)
- Challenge: synthetic androgen R1881 at 10 nM for 24 h
- Read-out: 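Firefly light from an androgen-responsive reporter and Renilla control light per well, raw and unnormalised, for each of two replicates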
- Direction: firefly reporter light: higher = more light from androgen-responsive reporter; Renilla control light: higher = more constitutive control signal (cell number, transfection)
- Call rule: 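Hit when the log firefly-to-Renilla ratio dropped or increased by a fixed fold versus the mean of GFP or LacZ controls across duplicate plates; lowering cut given as 1.5 and as 3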
- Calls: active = hit: reporter lowered or raised; inactive = no hit
The screen tested about 24,000 reagents; this is an unselected part of those with a known target gene and a result. Of all reagents, 246 (1%) were called active. 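Plates not normalised; calls are printed but the firefly/Renilla ratio behind them is not deposited; fold cut for lowering reported inconsistently.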 Raw values are not corrected between plates. Names joined by + are all predicted targets of the reagent. The record does not give: the amount of reagent.

Gene | amplicon | firefly reporter light, replicate 1 | firefly reporter light, replicate 2 | Renilla control light, replicate 1 | Renilla control light, replicate 2 | call
CG10208 (GeneID 42814) | DRSC14211 | 2.24e5 | 3.05e5 | 2.89e6 | 3.33e6 | inactive
mRpS34 (GeneID 39809) | DRSC09918 | 2.05e5 | 2.04e5 | 1.46e6 | 1.65e6 | inactive
mRpS34 (GeneID 39809) | DRSC29248 | 6.46e5 | 3.96e5 | 1.13e6 | 1.15e6 | inactive
CG14125 (GeneID 39359) | DRSC10129 | 1.65e5 | 1.39e5 | 1.98e6 | 1.65e6 | inactive
Tes (GeneID 36965) | DRSC06996 | 1.53e5 | 87253 | 2.00e6 | 2.00e6 | inactive
Adgf-B (GeneID 39975) | DRSC10568 | 1.60e5 | 1.62e5 | 1.84e6 | 2.10e6 | inactive
Adgf-B (GeneID 39975) | DRSC24118 | 9.05e5 | 8.29e5 | 1.15e6 | 1.06e6 | inactive
CG15203 (GeneID 32038) | DRSC19650 | 4.47e5 | 5.18e5 | 3.74e6 | 3.37e6 | inactive
CG32428 (GeneID 50105) | DRSC11697 | 2964 | 4436 | 14136 | 42824 | inactive
CG32428 (GeneID 50105) | DRSC11768 | 2.93e5 | 3.06e5 | 2.76e6 | 2.51e6 | inactive
CG32428 (GeneID 50105) | DRSC25993 | 3.67e5 | 4.38e5 | 9.83e5 | 7.99e5 | inactive
Golgin84 (GeneID 42905) | DRSC15269 | 2.21e5 | 2.70e5 | 2.60e6 | 2.50e6 | inactive
CG5435 (GeneID 34657) | DRSC02860 | 2.96e5 | 2.70e5 | 2.04e6 | 1.95e6 | inactive
CG11980 (GeneID 41078) | DRSC14456 | 20866 | 51918 | 1.92e5 | 3.10e5 | inactive
CG15047 (GeneID 32845) | DRSC19623 | 3.73e5 | 3.66e5 | 2.36e6 | 2.41e6 | inactive
CG15047 (GeneID 32845) | DRSC21443 | 6.72e5 | 7.68e5 | 1.80e6 | 1.65e6 | inactive
CG15047 (GeneID 32845) | DRSC27296 | 4.03e5 | 3.90e5 | 5.80e5 | 6.19e5 | inactive
CG15142 (GeneID 35059) | DRSC02443 | 1.40e5 | 94000 | 1.61e6 | 1.08e6 | inactive
SmydA-3 (GeneID 34502) | DRSC02565 | 1.68e5 | 1.58e5 | 9.59e5 | 1.29e6 | inactive
SmydA-3 (GeneID 34502) | DRSC02566 | 1.35e5 | 95132 | 1.26e6 | 9.43e5 | inactive
SmydA-3 (GeneID 34502) | DRSC30095 | 8.70e5 | 8.34e5 | 1.04e6 | 8.81e5 | inactive
Nipped-B (GeneID 3355136) | DRSC07815 | 76696 | 1.05e5 | 1.05e6 | 1.25e6 | inactive
Nipped-B (GeneID 3355136) | DRSC29151 | 8.70e5 | 3.47e5 | 1.62e6 | 9.48e5 | inactive
Su(z)3 (retired record) (GeneID 48315) | DRSC22970 | 7.33e5 | 1.05e6 | 1.77e6 | 1.87e6 | inactive
CG14408 (GeneID 32407) | DRSC23396 | 1.20e6 | 9.37e5 | 1.34e6 | 1.52e6 | inactive
stops (GeneID 43683) | DRSC15095 | 2.09e5 | 1.58e5 | 2.26e6 | 2.30e6 | inactive
stops (GeneID 43683) | DRSC15096 | 2.54e5 | 2.55e5 | 2.44e6 | 3.57e6 | inactive
stops (GeneID 43683) | DRSC15097 | 1.57e5 | 2.25e5 | 2.04e6 | 2.84e6 | inactive
rumpel (GeneID 31674) | DRSC18436 | 3.51e5 | 4.20e5 | 3.74e6 | 2.87e6 | inactive
puf (GeneID 42935) | DRSC23167 | 1.30e6 | 1.53e6 | 7.50e5 | 6.25e5 | inactive
CG7906 (GeneID 39575) | DRSC10928 | 6.84e5 | 5.11e5 | 1.38e6 | 1.40e6 | inactive
CG7906 (GeneID 39575) | DRSC29526 | 3.02e5 | 3.02e5 | 6.34e5 | 6.34e5 | inactive
CG13713 (GeneID 59233) | DRSC08322 | 1.85e5 | 1.70e5 | 1.91e6 | 2.42e6 | inactive
olf186-M (GeneID 37039) | DRSC07657 | 86807 | 54129 | 1.22e6 | 1.22e6 | inactive
CCT7 (GeneID 41054) | DRSC16410 | 98256 | 1.20e5 | 1.87e6 | 2.13e6 | inactive
CG13168 (GeneID 36327) | DRSC06295 | 2.52e5 | 1.67e5 | 1.21e6 | 1.20e6 | inactive
CG13054 (GeneID 39780) | DRSC09935 | 1.59e5 | 1.56e5 | 1.80e6 | 1.69e6 | inactive
CG13054 (GeneID 39780) | DRSC29594 | 3.84e5 | 2.57e5 | 9.33e5 | 9.33e5 | inactive

Individual results from above.
For “firefly reporter light, replicate 1”, mRpS34 (GeneID 39809) [DRSC09918] has 2.05e5
CG13168 (GeneID 36327) [DRSC06295], Renilla control light, replicate 1 = 1.21e6
CG15142 (GeneID 35059) [DRSC02443], Renilla control light, replicate 1: 1.61e6
Entry for CG15047 (GeneID 32845) [DRSC27296] in “firefly reporter light, replicate 1”: 4.03e5
For “firefly reporter light, replicate 1”, CG13713 (GeneID 59233) [DRSC08322] is entered as 1.85e5

The results go on.
Gene | amplicon | firefly reporter light, replicate 1 | firefly reporter light, replicate 2 | Renilla control light, replicate 1 | Renilla control light, replicate 2 | call
E23 (GeneID 43895) | DRSC00593 | 80747 | 90000 | 9.93e5 | 7.41e5 | inactive
E23 (GeneID 43895) | DRSC25491 | 6.83e5 | 4.71e5 | 6.42e5 | 5.65e5 | inactive
CG30043 (GeneID 246412) | DRSC06285 | 2.39e5 | 1.74e5 | 1.45e6 | 1.40e6 | inactive
yip7 (GeneID 38680) | DRSC11410 | 1.58e5 | 93316 | 1.53e6 | 9.48e5 | inactive
yip7 (GeneID 38680) | DRSC25234 | 4.03e5 | 3.51e5 | 9.08e5 | 5.80e5 | inactive
lectin-37Db (GeneID 3346221) | DRSC03279 | 2.26e5 | 2.29e5 | 1.92e6 | 1.77e6 | inactive
CG11977 (GeneID 41076) | DRSC14454 | 91853 | 1.06e5 | 1.76e6 | 2.00e6 | inactive
Elovl7 (GeneID 40943) | DRSC15452 | 85247 | 84967 | 2.23e6 | 1.50e6 | inactive
Elovl7 (GeneID 40943) | DRSC21570 | 3.88e5 | 4.87e5 | 1.31e6 | 1.83e6 | inactive
Elovl7 (GeneID 40943) | DRSC25259 | 6.12e5 | 8.65e5 | 6.92e5 | 9.37e5 | inactive
Obp56h (GeneID 37271) | DRSC06433 | 97273 | 1.21e5 | 1.47e6 | 1.31e6 | inactive
Obp56h (GeneID 37271) | DRSC24257 | 4.22e5 | 4.61e5 | 3.91e5 | 4.75e5 | inactive
lncRNA:CR32660 (GeneID 3771836) | DRSC22965 | 6.55e5 | 1.06e6 | 1.51e6 | 2.13e6 | inactive
lncRNA:CR32660 (GeneID 3771836) | DRSC25869 | 3.56e5 | 4.36e5 | 8.79e5 | 9.97e5 | inactive
Noc2 (GeneID 35386) | DRSC03165 | 8.29e5 | 6.95e5 | 2.20e6 | 1.98e6 | inactive
CAH15 (GeneID 37366) | DRSC04534 | 1.64e5 | 2.51e5 | 1.26e6 | 1.45e6 | inactive
CAH15 (GeneID 37366) | DRSC26087 | 3.74e5 | 3.12e5 | 6.47e5 | 6.45e5 | inactive
ATPsynCF6 (GeneID 42759) | DRSC14092 | 1.93e5 | 2.74e5 | 2.59e6 | 2.61e6 | inactive
CG3348 (GeneID 50082) | DRSC15480 | 2.22e5 | 1.96e5 | 1.95e6 | 2.38e6 | inactive
CG4328 (GeneID 39405) | DRSC23146 | 6.90e5 | 9.67e5 | 8.94e5 | 9.42e5 | inactive
CG4328 (GeneID 39405) | DRSC28606 | 4.22e5 | 3.46e5 | 1.35e6 | 1.24e6 | inactive
Rpt4R (GeneID 39351) | DRSC10791 | 1.77e5 | 2.58e5 | 2.41e6 | 2.52e6 | inactive
Rpt4R (GeneID 39351) | DRSC25928 | 3.84e5 | 4.52e5 | 6.39e5 | 5.49e5 | inactive
CG13086 (GeneID 35208) | DRSC02190 | 1.45e5 | 2.07e5 | 1.91e6 | 2.35e6 | inactive
CG13086 (GeneID 35208) | DRSC27538 | 2.29e5 | 2.18e5 | 3.52e5 | 8.17e5 | inactive
CG33223 + CG32713 | DRSC28559 | 4.08e5 | 6.64e5 | 1.10e6 | 1.52e6 | inactive
SIFaR (GeneID 42530) | DRSC13467 | 1.46e5 | 50843 | 2.18e5 | 1.82e5 | inactive
SIFaR (GeneID 42530) | DRSC14266 | 2.97e5 | 2.97e5 | 2.98e6 | 3.42e6 | inactive
spdi (GeneID 31004) | DRSC18487 | 42149 | 50995 | 5.28e5 | 3.38e5 | inactive
spdi (GeneID 31004) | DRSC18488 | 1.53e5 | 2.05e5 | 2.64e6 | 2.40e6 | inactive
Antp (GeneID 40835) | DRSC23104 | 1.81e5 | 1.76e5 | 9.62e5 | 1.05e6 | active
Antp (GeneID 40835) | DRSC26749 | 2.97e5 | 2.87e5 | 5.78e5 | 6.13e5 | inactive
asl (GeneID 40682) | DRSC12319 | 21262 | 71433 | 3.76e5 | 3.54e5 | inactive
Tbcb (GeneID 37244) | DRSC06067 | 2.73e5 | 4.31e5 | 6.82e5 | 7.57e5 | inactive
mri (GeneID 38028) | DRSC08259 | 4.22e5 | 5.85e5 | 7.86e5 | 8.42e5 | inactive
mri (GeneID 38028) | DRSC27787 | 1.67e5 | 1.63e5 | 3.88e5 | 5.55e5 | inactive
